Source: paper doi:10.1101/2023.12.05.570080
Construct, isoform or probe ends are uncertain for at least one entry. Results from cells or extracts need not show a direct contact. A weaker result is weaker than the reference pair of the same experiment. At least one verdict was read from the data and is not stated in words by the source. Where a protein sequence is shown, tags need not be part of it.

How the values were obtained:
Experiment in all cases: pull-down LC-MS/MS
Conditions in all cases: protein in an extract
[1] = target: T1, SUVH2 (Arabidopsis thaliana (cell culture)) (UniProt O22781)
T1 sequence (looked up, limits assumed): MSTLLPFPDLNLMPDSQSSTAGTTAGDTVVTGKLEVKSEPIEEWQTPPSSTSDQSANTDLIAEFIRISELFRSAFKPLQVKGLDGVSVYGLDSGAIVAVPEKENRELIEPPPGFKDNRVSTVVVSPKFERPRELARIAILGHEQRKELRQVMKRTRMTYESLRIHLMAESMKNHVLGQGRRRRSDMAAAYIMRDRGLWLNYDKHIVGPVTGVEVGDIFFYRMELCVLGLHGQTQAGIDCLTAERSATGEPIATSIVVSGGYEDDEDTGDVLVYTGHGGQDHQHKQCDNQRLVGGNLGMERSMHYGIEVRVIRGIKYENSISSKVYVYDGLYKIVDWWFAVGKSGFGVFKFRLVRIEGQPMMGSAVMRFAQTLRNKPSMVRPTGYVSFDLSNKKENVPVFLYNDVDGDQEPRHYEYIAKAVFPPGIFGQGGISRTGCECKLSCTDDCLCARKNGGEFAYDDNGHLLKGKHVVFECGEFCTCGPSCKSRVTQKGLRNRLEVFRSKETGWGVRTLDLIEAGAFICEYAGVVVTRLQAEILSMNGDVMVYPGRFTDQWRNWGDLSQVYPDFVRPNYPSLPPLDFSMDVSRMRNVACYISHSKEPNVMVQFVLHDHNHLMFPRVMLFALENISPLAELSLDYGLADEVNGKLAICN

[2] = target: T2, SUVH5 (Arabidopsis thaliana (cell culture)) (UniProt O82175)
T2 sequence (looked up, limits assumed): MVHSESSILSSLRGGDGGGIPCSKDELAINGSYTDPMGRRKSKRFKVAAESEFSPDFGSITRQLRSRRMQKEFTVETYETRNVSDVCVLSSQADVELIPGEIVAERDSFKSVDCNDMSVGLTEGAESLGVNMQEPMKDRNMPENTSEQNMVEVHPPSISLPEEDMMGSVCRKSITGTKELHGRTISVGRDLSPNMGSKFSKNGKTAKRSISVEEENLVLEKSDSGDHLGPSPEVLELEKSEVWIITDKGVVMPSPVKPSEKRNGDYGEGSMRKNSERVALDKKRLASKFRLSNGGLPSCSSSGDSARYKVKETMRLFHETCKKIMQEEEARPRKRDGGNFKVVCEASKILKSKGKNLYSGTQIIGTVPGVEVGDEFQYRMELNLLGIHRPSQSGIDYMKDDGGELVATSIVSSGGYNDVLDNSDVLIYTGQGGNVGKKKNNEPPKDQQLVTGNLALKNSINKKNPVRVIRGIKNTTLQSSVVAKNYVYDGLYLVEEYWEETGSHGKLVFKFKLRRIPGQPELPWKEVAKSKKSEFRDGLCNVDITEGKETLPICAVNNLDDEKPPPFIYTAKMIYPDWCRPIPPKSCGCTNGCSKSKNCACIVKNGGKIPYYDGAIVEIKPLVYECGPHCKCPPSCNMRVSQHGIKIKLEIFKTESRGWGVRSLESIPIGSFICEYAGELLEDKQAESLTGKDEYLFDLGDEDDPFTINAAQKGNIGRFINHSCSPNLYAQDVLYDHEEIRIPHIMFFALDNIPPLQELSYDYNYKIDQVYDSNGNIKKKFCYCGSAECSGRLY

[3] = target: T3, MBD5 (Arabidopsis thaliana (cell culture)) (UniProt Q9SNC0)
T3 sequence (looked up, limits assumed): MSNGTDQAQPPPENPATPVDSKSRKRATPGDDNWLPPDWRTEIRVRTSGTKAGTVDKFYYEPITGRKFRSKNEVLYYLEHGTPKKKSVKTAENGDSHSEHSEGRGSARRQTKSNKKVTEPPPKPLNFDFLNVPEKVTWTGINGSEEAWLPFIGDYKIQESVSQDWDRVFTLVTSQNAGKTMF

[4] = target: T4, MBD6 (Arabidopsis thaliana (cell culture)) (UniProt Q9LTJ1)
T4 sequence (looked up, limits assumed): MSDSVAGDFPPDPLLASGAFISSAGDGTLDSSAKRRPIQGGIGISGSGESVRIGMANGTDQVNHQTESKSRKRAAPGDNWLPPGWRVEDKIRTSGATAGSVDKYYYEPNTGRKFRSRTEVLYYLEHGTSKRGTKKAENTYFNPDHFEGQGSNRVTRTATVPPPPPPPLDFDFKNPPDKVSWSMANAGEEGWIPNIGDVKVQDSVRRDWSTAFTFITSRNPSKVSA

[5] = target: T5, VIM1 (Arabidopsis thaliana (cell culture)) (UniProt Q8VYZ0)
T5 sequence (looked up, limits assumed): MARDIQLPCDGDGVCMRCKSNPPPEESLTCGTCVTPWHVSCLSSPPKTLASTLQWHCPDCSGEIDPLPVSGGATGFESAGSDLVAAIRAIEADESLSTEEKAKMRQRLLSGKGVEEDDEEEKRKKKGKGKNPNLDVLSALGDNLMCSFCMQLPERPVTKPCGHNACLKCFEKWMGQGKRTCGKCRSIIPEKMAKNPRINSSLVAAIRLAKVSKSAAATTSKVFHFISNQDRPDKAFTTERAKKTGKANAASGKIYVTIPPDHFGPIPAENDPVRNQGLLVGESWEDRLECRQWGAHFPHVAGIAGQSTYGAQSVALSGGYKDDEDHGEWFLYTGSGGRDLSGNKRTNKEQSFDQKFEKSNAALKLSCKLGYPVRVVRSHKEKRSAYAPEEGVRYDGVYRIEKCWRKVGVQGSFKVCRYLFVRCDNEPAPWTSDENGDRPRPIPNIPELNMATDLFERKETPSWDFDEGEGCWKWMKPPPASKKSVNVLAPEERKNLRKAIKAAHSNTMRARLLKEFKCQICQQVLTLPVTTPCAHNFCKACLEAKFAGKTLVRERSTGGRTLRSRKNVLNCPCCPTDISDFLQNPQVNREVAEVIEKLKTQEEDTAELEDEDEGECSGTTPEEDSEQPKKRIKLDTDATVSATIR

[6] = target: T6, VIM2 (Arabidopsis thaliana (cell culture)) (UniProt Q680I0)
T6 sequence (looked up, limits assumed): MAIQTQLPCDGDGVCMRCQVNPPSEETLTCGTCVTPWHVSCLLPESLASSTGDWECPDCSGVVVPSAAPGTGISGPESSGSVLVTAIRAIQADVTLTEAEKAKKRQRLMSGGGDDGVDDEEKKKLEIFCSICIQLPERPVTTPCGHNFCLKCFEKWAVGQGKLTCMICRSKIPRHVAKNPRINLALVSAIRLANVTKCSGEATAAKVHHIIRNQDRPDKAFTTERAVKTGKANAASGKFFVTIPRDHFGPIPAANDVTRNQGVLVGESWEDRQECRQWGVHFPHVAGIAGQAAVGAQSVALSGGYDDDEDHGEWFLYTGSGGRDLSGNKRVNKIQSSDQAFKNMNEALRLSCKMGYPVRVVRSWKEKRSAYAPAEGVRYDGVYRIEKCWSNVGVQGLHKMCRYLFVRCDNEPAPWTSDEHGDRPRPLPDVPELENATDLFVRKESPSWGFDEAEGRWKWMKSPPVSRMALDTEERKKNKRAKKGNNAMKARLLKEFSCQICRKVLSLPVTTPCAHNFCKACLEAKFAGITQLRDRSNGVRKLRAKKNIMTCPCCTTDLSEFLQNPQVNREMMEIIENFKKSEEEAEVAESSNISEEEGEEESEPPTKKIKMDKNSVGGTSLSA

[7] = target: T7, VIM3 (Arabidopsis thaliana (cell culture)) (UniProt Q9FKA7)
T7 sequence (looked up, limits assumed): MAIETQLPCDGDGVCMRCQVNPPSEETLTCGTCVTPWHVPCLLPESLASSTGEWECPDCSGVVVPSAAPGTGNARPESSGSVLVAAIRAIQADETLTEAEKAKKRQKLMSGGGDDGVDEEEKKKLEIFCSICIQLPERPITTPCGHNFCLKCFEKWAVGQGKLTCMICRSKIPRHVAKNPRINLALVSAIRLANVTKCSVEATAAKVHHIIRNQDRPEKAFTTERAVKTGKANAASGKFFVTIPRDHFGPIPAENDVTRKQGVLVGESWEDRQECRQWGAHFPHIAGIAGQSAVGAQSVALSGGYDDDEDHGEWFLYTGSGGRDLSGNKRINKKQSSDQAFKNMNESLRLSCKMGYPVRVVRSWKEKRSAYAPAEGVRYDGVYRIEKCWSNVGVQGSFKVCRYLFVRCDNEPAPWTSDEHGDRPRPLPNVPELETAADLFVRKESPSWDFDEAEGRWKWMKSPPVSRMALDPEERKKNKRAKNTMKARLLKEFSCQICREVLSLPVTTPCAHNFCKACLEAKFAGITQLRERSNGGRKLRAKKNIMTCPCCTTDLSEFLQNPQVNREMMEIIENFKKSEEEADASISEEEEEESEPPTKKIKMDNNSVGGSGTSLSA

[8] = target: T8, SUVH4 (KYP) (Arabidopsis thaliana (cell culture)) (UniProt Q8GZB6)
T8 sequence (looked up, limits assumed): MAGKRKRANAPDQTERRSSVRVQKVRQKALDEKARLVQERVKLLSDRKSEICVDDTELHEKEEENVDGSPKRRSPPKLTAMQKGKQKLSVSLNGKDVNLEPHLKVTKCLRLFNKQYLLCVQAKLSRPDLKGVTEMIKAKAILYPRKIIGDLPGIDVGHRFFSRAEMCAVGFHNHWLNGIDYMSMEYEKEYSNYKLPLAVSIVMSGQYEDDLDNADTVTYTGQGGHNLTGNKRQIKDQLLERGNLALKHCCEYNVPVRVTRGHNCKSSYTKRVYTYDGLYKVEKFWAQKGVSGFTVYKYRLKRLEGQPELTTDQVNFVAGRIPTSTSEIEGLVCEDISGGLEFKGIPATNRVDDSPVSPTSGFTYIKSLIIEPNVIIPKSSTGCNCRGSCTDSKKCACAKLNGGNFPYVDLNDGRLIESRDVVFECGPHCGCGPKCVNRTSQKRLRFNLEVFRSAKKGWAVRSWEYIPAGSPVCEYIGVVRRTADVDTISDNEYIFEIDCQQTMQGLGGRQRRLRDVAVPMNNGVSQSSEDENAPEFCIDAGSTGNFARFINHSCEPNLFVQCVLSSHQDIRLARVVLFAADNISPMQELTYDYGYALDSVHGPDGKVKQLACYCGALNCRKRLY

[9] = target: T9, SUVH6 (Arabidopsis thaliana (cell culture)) (UniProt Q8VZ17)
T9 sequence (looked up, limits assumed): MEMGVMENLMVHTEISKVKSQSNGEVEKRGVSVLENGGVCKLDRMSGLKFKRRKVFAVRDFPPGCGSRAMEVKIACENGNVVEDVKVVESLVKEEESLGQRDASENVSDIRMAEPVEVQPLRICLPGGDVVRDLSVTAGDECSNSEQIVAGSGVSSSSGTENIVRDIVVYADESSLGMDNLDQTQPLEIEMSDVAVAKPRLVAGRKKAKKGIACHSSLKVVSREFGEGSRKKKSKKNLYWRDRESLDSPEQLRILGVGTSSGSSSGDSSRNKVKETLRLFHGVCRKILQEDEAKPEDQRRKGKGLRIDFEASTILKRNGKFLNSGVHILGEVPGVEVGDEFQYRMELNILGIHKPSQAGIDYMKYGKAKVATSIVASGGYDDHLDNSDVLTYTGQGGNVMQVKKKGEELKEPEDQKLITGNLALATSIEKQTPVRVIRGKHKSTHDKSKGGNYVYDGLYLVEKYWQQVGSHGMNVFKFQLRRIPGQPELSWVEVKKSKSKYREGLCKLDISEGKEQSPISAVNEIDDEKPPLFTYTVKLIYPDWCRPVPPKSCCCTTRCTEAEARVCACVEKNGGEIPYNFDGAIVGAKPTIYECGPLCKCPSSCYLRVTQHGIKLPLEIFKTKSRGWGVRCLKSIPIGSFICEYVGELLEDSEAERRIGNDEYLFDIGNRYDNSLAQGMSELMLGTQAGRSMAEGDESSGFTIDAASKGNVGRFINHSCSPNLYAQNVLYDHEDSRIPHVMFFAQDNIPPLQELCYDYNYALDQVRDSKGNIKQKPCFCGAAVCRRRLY

[10] = mC at 9,14,19,24 of strand 1 and 8,13,18,23 of strand 2

“GATGATGTCAATTCAATTCAATTCAATATGATG (double strand) [methylated CHH probe (CHH1/CHH2)]”: binds ([1]; mC at 9,14,19,24 of strand 1); binds ([2]; mC at 9,14,19,24 of strand 1).

“GATGATGTCAATTCAATTCAATTCAATATGATG (double strand) [unmethylated CHH probe (CHH3/CHH2)]”: binds more weakly [1]; binds more weakly [2].

“GATGATGTCGATTCGATTCGATTCGATATGATG (double strand) [unmethylated CG probe (CG3/CG4)]”: binds more weakly [3]; binds more weakly [4]; binds more weakly [1]. “GATGATGTCGATTCGATTCGATTCGATATGATG (double strand) [unmethylated CG probe (CG3/CG4)]”: binds more weakly [2]; binds more weakly [5]; binds more weakly [6]. “GATGATGTCGATTCGATTCGATTCGATATGATG (double strand) [unmethylated CG probe (CG3/CG4)]”: binds more weakly [7].

“GATGATGTCTGATCTGATCTGATCTGAATGATG (double strand) [methylated CHG probe (CHG1/CHG2)]”: binds [1, 10]; binds [8, 10]; binds [2, 10]. “GATGATGTCTGATCTGATCTGATCTGAATGATG (double strand) [methylated CHG probe (CHG1/CHG2)]”: binds [9, 10]; binds [5, 10]; binds [6, 10]. “GATGATGTCTGATCTGATCTGATCTGAATGATG (double strand) [methylated CHG probe (CHG1/CHG2)]”: binds [7, 10].

“GATGATGTCTGATCTGATCTGATCTGAATGATG (double strand) [unmethylated CHG probe (CHG3/CHG4)]”: binds more weakly [1]; binds more weakly [8]; binds more weakly [2]. “GATGATGTCTGATCTGATCTGATCTGAATGATG (double strand) [unmethylated CHG probe (CHG3/CHG4)]”: binds more weakly [9]; binds more weakly [5]; binds more weakly [6]. “GATGATGTCTGATCTGATCTGATCTGAATGATG (double strand) [unmethylated CHG probe (CHG3/CHG4)]”: binds more weakly [7].
